Our source for the binding values is doi:10.1101/2023.01.17.524225 (bioRxiv, 2023).

Protein sequences, listed by entry. Tags and fused reporters are not part of them.
UniProt Q92841: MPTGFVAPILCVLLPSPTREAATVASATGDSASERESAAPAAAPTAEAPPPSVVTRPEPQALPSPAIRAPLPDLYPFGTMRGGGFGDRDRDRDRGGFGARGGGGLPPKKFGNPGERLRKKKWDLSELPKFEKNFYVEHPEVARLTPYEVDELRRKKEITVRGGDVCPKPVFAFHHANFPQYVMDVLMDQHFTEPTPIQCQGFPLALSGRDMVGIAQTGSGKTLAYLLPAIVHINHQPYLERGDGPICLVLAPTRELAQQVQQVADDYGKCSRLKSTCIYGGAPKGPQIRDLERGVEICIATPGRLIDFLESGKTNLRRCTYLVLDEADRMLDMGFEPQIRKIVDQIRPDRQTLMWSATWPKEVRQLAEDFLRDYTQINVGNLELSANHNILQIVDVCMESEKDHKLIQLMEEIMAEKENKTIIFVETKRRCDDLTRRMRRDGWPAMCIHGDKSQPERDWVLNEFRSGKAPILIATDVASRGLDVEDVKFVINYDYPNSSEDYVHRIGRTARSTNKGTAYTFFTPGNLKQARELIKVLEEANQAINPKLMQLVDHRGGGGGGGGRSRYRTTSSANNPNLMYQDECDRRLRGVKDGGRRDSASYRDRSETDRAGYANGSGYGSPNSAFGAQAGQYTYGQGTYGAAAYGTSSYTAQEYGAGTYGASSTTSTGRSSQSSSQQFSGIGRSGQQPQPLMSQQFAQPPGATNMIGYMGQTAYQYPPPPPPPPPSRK
UniProt Q9NR30: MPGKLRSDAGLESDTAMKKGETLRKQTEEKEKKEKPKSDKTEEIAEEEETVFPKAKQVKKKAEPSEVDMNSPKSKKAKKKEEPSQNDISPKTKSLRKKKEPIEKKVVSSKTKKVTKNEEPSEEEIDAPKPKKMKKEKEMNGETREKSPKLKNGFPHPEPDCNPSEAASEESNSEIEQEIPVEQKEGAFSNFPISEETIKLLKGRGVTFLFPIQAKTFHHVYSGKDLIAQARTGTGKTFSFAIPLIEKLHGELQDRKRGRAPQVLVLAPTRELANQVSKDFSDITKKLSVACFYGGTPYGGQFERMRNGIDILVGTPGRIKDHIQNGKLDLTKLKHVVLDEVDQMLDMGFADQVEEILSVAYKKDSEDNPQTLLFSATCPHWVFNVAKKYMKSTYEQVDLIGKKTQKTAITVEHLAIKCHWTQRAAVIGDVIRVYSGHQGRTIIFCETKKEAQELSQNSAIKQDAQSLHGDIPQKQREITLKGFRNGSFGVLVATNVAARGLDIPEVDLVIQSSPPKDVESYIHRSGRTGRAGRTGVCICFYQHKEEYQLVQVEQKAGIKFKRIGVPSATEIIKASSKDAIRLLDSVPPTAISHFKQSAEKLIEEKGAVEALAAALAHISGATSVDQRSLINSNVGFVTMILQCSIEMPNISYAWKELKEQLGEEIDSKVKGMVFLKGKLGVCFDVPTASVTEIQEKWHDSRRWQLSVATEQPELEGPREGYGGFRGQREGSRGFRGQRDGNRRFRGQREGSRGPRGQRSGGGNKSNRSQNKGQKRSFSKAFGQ
UniProt Q9BUQ8: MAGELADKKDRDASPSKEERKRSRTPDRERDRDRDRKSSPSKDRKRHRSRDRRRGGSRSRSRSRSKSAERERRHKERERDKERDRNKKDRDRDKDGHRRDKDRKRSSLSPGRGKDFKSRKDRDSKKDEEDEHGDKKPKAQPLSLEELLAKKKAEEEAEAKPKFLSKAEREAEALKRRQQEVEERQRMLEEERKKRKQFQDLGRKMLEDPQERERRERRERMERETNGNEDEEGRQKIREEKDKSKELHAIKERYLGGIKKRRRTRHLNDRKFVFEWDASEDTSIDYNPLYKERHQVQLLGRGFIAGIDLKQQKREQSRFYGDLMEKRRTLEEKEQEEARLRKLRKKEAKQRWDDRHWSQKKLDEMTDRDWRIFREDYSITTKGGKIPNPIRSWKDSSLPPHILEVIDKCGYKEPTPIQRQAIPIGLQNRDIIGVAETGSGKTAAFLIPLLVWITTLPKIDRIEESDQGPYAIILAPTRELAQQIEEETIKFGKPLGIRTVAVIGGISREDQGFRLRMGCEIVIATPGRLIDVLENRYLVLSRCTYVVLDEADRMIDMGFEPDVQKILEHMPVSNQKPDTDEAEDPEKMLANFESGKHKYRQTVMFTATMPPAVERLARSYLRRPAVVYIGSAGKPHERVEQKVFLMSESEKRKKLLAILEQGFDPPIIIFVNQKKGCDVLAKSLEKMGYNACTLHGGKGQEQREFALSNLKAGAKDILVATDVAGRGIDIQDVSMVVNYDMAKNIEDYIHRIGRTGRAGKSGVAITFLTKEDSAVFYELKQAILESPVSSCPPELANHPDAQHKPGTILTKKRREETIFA
UniProt Q9UPY3: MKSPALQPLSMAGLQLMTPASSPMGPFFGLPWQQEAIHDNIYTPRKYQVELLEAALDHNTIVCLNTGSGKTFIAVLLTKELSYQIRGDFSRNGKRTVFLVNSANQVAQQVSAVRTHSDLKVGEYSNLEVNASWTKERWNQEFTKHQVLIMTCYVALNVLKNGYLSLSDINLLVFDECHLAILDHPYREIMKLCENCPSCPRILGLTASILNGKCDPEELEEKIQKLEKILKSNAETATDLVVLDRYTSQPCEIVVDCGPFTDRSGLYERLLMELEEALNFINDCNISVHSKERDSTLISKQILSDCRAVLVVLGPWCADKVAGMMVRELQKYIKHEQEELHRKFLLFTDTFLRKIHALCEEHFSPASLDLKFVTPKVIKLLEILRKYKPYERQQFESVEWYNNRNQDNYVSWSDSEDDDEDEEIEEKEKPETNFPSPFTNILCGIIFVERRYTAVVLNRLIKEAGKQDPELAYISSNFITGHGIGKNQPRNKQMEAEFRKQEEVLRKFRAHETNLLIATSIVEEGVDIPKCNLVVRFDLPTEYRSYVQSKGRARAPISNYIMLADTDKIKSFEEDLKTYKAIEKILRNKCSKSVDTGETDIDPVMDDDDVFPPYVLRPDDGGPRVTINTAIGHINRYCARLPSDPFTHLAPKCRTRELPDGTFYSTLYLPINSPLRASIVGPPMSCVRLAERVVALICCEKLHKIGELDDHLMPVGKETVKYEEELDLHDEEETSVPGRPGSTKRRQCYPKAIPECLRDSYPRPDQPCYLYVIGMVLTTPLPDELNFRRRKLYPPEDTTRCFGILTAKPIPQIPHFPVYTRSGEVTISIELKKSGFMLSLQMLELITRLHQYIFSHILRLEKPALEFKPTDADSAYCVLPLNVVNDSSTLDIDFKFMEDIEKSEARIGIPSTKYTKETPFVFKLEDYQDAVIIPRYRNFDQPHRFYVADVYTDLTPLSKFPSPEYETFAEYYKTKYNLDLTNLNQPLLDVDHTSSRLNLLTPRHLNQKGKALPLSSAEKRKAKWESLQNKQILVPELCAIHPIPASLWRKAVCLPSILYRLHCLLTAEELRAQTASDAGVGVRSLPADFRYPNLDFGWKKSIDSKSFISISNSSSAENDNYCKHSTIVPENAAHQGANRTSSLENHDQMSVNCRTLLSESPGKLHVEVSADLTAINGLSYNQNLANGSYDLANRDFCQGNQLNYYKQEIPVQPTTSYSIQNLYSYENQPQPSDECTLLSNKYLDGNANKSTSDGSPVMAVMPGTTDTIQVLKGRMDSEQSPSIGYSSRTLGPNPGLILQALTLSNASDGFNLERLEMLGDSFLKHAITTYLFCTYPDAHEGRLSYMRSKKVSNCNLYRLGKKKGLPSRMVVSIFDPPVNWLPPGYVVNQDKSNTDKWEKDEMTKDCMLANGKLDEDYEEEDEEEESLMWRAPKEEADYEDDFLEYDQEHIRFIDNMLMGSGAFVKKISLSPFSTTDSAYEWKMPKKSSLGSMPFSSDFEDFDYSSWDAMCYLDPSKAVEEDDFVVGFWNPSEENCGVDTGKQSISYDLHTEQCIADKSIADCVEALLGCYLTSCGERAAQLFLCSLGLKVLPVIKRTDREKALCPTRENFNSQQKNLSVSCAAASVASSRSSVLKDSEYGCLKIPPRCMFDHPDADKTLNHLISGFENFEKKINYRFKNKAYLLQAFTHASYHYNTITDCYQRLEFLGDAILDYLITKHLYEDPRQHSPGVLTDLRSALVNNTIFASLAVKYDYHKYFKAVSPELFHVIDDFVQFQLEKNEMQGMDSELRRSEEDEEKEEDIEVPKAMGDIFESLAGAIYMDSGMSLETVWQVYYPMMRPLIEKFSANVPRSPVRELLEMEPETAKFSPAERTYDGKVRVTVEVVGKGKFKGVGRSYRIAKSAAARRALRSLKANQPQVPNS
UniProt Q16666: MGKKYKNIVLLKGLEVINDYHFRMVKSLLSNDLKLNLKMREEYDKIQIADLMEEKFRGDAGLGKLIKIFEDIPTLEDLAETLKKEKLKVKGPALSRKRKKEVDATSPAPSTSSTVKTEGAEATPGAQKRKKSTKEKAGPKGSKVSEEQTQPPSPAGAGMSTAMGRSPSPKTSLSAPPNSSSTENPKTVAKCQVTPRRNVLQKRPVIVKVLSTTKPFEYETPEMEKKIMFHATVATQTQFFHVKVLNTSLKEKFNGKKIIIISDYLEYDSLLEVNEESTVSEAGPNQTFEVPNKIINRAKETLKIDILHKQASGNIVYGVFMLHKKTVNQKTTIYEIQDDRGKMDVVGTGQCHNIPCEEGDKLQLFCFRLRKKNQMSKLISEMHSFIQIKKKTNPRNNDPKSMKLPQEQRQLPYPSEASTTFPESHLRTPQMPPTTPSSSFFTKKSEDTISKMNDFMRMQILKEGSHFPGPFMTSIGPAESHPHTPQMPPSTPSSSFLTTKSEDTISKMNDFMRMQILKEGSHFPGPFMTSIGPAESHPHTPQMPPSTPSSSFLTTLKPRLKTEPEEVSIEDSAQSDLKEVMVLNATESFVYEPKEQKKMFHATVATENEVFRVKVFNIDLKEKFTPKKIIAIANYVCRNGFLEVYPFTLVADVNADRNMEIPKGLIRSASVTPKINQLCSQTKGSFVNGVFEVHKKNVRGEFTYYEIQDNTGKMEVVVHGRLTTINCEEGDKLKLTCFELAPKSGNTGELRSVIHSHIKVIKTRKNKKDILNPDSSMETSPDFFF
UniProt Q93009: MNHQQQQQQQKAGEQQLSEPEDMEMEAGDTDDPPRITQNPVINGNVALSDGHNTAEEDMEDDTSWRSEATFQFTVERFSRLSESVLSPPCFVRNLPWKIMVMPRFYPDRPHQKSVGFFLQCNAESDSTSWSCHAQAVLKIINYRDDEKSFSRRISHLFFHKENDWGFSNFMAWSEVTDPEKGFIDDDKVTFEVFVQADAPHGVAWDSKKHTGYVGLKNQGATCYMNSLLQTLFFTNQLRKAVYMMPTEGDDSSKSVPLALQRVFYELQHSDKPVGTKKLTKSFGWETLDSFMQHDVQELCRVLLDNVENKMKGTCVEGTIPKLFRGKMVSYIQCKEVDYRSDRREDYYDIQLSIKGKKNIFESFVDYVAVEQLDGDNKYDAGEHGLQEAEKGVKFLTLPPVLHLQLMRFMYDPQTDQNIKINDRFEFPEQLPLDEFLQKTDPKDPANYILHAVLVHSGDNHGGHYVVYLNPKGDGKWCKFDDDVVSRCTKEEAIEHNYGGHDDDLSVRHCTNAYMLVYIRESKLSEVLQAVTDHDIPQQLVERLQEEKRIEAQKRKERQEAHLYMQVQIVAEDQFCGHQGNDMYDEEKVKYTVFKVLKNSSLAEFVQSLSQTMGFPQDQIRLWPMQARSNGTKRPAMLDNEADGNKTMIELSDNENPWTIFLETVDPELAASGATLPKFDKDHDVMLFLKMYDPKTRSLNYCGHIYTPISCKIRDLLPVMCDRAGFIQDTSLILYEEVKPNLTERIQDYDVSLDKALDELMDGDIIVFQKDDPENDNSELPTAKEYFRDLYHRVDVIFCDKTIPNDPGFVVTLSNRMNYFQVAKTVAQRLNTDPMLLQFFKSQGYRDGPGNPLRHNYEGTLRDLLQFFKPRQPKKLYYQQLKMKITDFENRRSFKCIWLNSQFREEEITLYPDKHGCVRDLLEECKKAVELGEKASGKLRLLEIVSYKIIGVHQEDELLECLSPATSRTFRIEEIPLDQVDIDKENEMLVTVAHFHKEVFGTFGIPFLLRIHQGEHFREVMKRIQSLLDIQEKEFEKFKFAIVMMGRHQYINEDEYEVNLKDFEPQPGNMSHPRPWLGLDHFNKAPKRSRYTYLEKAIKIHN

Test [1] deals with T1, HA-myc-BioID2-GID4 (human) (UniProt Q8IVV7).
T1 sequence: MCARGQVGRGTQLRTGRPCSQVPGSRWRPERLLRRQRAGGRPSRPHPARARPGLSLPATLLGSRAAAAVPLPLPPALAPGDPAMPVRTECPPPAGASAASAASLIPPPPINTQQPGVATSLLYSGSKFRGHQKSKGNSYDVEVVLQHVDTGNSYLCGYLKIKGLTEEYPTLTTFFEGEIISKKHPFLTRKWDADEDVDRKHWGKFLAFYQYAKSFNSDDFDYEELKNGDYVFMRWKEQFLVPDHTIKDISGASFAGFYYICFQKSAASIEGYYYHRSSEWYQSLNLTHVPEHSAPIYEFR
In words: proximity labelling.

The target in test [2] is T1, HA-myc-BioID2-GID4 (human). In words: proximity labelling. The source holds these as a separate data set.

Where two headings read alike, the source gives them in different places. These are yes or no findings as the source states them, for the method shown. In cells and extracts the contact can be indirect. These calls come from enrichment with a bait or labelling near it, and not all partners need be listed. No binding means not detected with the bait. Tags and fused reporters may be left off the sequences shown.

In the case of DDX17 (from UniProt Q92841 1-729), the binding result was “binds” in test [1] and “no binding (only with 10 uM PFI-7)” in test [2].

Turning to DDX21 (from UniProt Q9NR30 1-783), the binding entry in test [1] is listed as “binds”; in test [2] it was “no binding (only with 10 uM PFI-7)”.

Take DDX23 (from UniProt Q9BUQ8 1-820): in test [1], the binding result is on record as “binds”.

Consider “DICER1 (from UniProt Q9UPY3 1-1922) (enzyme)”, for which the binding entry in test [1] is recorded as “no binding”.

Regarding IFI16 (from UniProt Q16666 1-785), the binding entry in test [1] is “binds”.

Consider “USP7 (from UniProt Q93009 1-1102) (enzyme)”, for which the binding entry in test [1] was “binds”.

B1: UBE2O (enzyme, UniProt Q9C0C9 1-1292)
chain: MADPAAPTPAAPAPAQAPAPAPEAVPAPAAAPVPAPAPASDSASGPSSDSGPEAGSQRLLFSHDLVSGRYRGSVHFGLVRLIHGEDSDSEGEEEGRGSSGCSEAGGAGHEEGRASPLRRGYVRVQWYPEGVKQHVKETKLKLEDRSVVPRDVVRHMRSTDSQCGTVIDVNIDCAVKLIGTNCIIYPVNSKDLQHIWPFMYGDYIAYDCWLGKVYDLKNQIILKLSNGARCSMNTEDGAKLYDVCPHVSDSGLFFDDSYGFYPGQVLIGPAKIFSSVQWLSGVKPVLSTKSKFRVVVEEVQVVELKVTWITKSFCPGGTDSVSPPPSVITQENLGRVKRLGCFDHAQRQLGERCLYVFPAKVEPAKIAWECPEKNCAQGEGSMAKKVKRLLKKQVVRIMSCSPDTQCSRDHSMEDPDKKGESKTKSEAESASPEETPDGSASPVEMQDEGAEEPHEAGEQLPPFLLKEGRDDRLHSAEQDADDEAADDTDDTSSVTSSASSTTSSQSGSGTSRKKSIPLSIKNLKRKHKRKKNKITRDFKPGDRVAVEVVTTMTSADVMWQDGSVECNIRSNDLFPVHHLDNNEFCPGDFVVDKRVQSCPDPAVYGVVQSGDHIGRTCMVKWFKLRPSGDDVELIGEEEDVSVYDIADHPDFRFRTTDIVIRIGNTEDGAPHKEDEPSVGQVARVDVSSKVEVVWADNSKTIILPQHLYNIESEIEESDYDSVEGSTSGASSDEWEDDSDSWETDNGLVEDEHPKIEEPPIPPLEQPVAPEDKGVVISEEAATAAVQGAVAMAAPMAGLMEKAGKDGPPKSFRELKEAIKILESLKNMTVEQLLTGSPTSPTVEPEKPTREKKFLDDIKKLQENLKKTLDNVAIVEEEKMEAVPDVERKEDKPEGQSPVKAEWPSETPVLCQQCGGKPGVTFTSAKGEVFSVLEFAPSNHSFKKIEFQPPEAKKFFSTVRKEMALLATSLPEGIMVKTFEDRMDLFSALIKGPTRTPYEDGLYLFDIQLPNIYPAVPPHFCYLSQCSGRLNPNLYDNGKVCVSLLGTWIGKGTERWTSKSSLLQVLISIQGLILVNEPYYNEAGFDSDRGLQEGYENSRCYNEMALIRVVQSMTQLVRRPPEVFEQEIRQHFSTGGWRLVNRIESWLETHALLEKAQALPNGVPKASSSPEPPAVAELSDSGQQEPEDGGPAPGEASQGSDSEGGAQGLASASRDHTDQTSETAPDASVPPSVKPKKRRKSYRSFLPEKSGYPDIGFPLFPLSKGFIKSIRGVLTQFRAALLEAGMPECTEDK
On to B1, for which the binding result in test [1] is given as “binds”.

B2: SCAF1 (protein, UniProt Q9H7N4 1-1312)
chain: MEEEDESRGKTEESGEDRGDGPPDRDPTLSPSAFILRAIQQAVGSSLQGDLPNDKDGSRCHGLRWRRCRSPRSEPRSQESGGTDTATVLDMATDSFLAGLVSVLDPPDTWVPSRLDLRPGESEDMLELVAEVRIGDRDPIPLPVPSLLPRLRAWRTGKTVSPQSNSSRPTCARHLTLGTGDGGPAPPPAPSSASSSPSPSPSSSSPSPPPPPPPPAPPAPPAPRFDIYDPFHPTDEAYSPPPAPEQKYDPFEPTGSNPSSSAGTPSPEEEEEEEEEEEEEEEDEEEEEGLSQSISRISETLAGIYDDNSLSQDFPGDESPRPDAQPTQPTPAPGTPPQVDSTRADGAMRRRVFVVGTEAEACREGKVSVEVVTAGGAALPPPLLPPGDSEIEEGEIVQPEEEPRLALSLFRPGGRAARPTPAASATPTAQPLPQPPAPRAPEGDDFLSLHAESDGEGALQVDLGEPAPAPPAADSRWGGLDLRRKILTQRRERYRQRSPSPAPAPAPAAAAGPPTRKKSRRERKRSGEAKEAASSSSGTQPAPPAPASPWDSKKHRSRDRKPGSHASSSARRRSRSRSRSRSTRRRSRSTDRRRGGSRRSRSREKRRRRRRSASPPPATSSSSSSRRERHRGKHRDGGGSKKKKKRSRSRGEKRSGDGSEKAPAPAPPPSGSTSCGDRDSRRRGAVPPSIQDLTDHDLFAIKRTITVGRLDKSDPRGPSPAPASSPKREVLYDSEGLSGEERGGKSSQKDRRRSGAASSSSSSREKGSRRKALDGGDRDRDRDRDRDRDRSSKKARPPKESAPSSGPPPKPPVSSGSGSSSSSSSCSSRKVKLQSKVAVLIREGVSSTTPAKDAASAGLGSIGVKFSRDRESRSPFLKPDERAPTEMAKAAPGSTKPKKTKVKAKAGAKKTKGTKGKTKPSKTRKKVRSGGGSGGSGGQVSLKKSKADSCSQAAGTKGAEETSWSGEERAAKVPSTPPPKAAPPPPALTPDSQTVDSSCKTPEVSFLPEEATEEAGVRGGAEEEEEEEEEEEEEEEEEEQQPATTTATSTAAAAPSTAPSAGSTAGDSGAEDGPASRVSQLPTLPPPMPWNLPAGVDCTTSGVLALTALLFKMEEANLASRAKAQELIQATNQILSHRKPPSSLGMTPAPVPTSLGLPPGPSSYLLPGSLPLGGCGSTPPTPTGLAATSDKREGSSSSEGRGDTDKYLKKLHTQERAVEEVKLAIKPYYQKKDITKEEYKDILRKAVHKICHSKSGEINPVKVSNLVRAYVQRYRYFRKHGRKPGDPPGPPRPPKEPGPPDKGGPGLPLPPL
B2: in test [1], the binding entry is on record as “binds”.

B3: KIN (protein, UniProt O60870 1-393)
chain: MGKSDFLTPKAIANRIKSKGLQKLRWYCQMCQKQCRDENGFKCHCMSESHQRQLLLASENPQQFMDYFSEEFRNDFLELLRRRFGTKRVHNNIVYNEYISHREHIHMNATQWETLTDFTKWLGREGLCKVDETPKGWYIQYIDRDPETIRRQLELEKKKKQDLDDEEKTAKFIEEQVRRGLEGKEQEVPTFTELSRENDEEKVTFNLSKGACSSSGATSSKSSTLGPSALKTIGSSASVKRKESSQSSTQSKEKKKKKSALDEIMEIEEEKKRTARTDYWLQPEIIVKIITKKLGEKYHKKKAIVKEVIDKYTAVVKMIDSGDKLKLDQTHLETVIPAPGKRILVLNGGYRGNEGTLESINEKTFSATIVIETGPLKGRRVEGIQYEDISKLA
As to B3, the figures for the binding result in test [1] and in test [2] were “binds” and “no binding (only with 10 uM PFI-7)”, respectively.

B4: DDX50 (protein, UniProt Q9BQ39 1-737)
chain: MPGKLLWGDIMELEAPLEESESQKKERQKSDRRKSRHHYDSDEKSETRENGVTDDLDAPKAKKSKMKEKLNGDTEEGFNRLSDEFSKSHKSRRKDLPNGDIDEYEKKSKRVSSLDTSTHKSSDNKLEETLTREQKEGAFSNFPISEETIKLLKGRGVTYLFPIQVKTFGPVYEGKDLIAQARTGTGKTFSFAIPLIERLQRNQETIKKSRSPKVLVLAPTRELANQVAKDFKDITRKLSVACFYGGTSYQSQINHIRNGIDILVGTPGRIKDHLQSGRLDLSKLRHVVLDEVDQMLDLGFAEQVEDIIHESYKTDSEDNPQTLLFSATCPQWVYKVAKKYMKSRYEQVDLVGKMTQKAATTVEHLAIQCHWSQRPAVIGDVLQVYSGSEGRAIIFCETKKNVTEMAMNPHIKQNAQCLHGDIAQSQREITLKGFREGSFKVLVATNVAARGLDIPEVDLVIQSSPPQDVESYIHRSGRTGRAGRTGICICFYQPRERGQLRYVEQKAGITFKRVGVPSTMDLVKSKSMDAIRSLASVSYAAVDFFRPSAQRLIEEKGAVDALAAALAHISGASSFEPRSLITSDKGFVTMTLESLEEIQDVSCAWKELNRKLSSNAVSQITRMCLLKGNMGVCFDVPTTESERLQAEWHDSDWILSVPAKLPEIEEYYDGNTSSNSRQRSGWSSGRSGRSGRSGGRSGGRSGRQSRQGSRSGSRQDGRRRSGNRNRSRSGGHKRSFD
For B4, the binding result in test [2] was “no binding (only with 10 uM PFI-7)”.

B5: DHX40 (protein, UniProt Q8IX18 1-779)
chain: MSRFPAVAGRAPRRQEEGERSRDLQEERLSAVCIADREEKGCTSQEGGTTPTFPIQKQRKKIIQAVRDNSFLIVTGNTGSGKTTQLPKYLYEAGFSQHGMIGVTQPRKVAAISVAQRVAEEMKCTLGSKVGYQVRFDDCSSKETAIKYMTDGCLLKHILGDPNLTKFSVIILDEAHERTLTTDILFGLLKKLFQEKSPNRKEHLKVVVMSATMELAKLSAFFGNCPIFDIPGRLYPVREKFCNLIGPRDRENTAYIQAIVKVTMDIHLNEMAGDILVFLTGQFEIEKSCELLFQMAESVDYDYDVQDTTLDGLLILPCYGSMTTDQQRRIFLPPPPGIRKCVISTNISATSLTIDGIRYVVDGGFVKQLNHNPRLGLDILEVVPISKSEALQRSGRAGRTSSGKCFRIYSKDFWNQCMPDHVIPEIKRTSLTSVVLTLKCLAIHDVIRFPYLDPPNERLILEALKQLYQCDAIDRSGHVTRLGLSMVEFPLPPHLTCAVIKAASLDCEDLLLPIAAMLSVENVFIRPVDPEYQKEAEQRHRELAAKAGGFNDFATLAVIFEQCKSSGAPASWCQKHWIHWRCLFSAFRVEAQLRELIRKLKQQSDFPKETFEGPKHEVLRRCLCAGYFKNVARRSVGRTFCTMDGRGSPVHIHPSSALHEQETKLEWIIFHEVLVTTKVYARIVCPIRYEWVRDLLPKLHEFNAHDLSSVARREVREDARRRWTNKENVKQLKDGISKDVLKKMQRRNDDKSISDARARFLERKQQRTQDHSDTRKETG
For the molecule B5, in test [1], the binding entry is recorded as “no binding”.

B6: DDX24 (protein, UniProt Q9GZR7 1-859)
chain: MKLKDTKSRPKQSSCGKFQTKGIKVVGKWKEVKIDPNMFADGQMDDLVCFEELTDYQLVSPAKNPSSLFSKEAPKRKAQAVSEEEEEEEGKSSSPKKKIKLKKSKNVATEGTSTQKEFEVKDPELEAQGDDMVCDDPEAGEMTSENLVQTAPKKKKNKGKKGLEPSQSTAAKVPKKAKTWIPEVHDQKADVSAWKDLFVPRPVLRALSFLGFSAPTPIQALTLAPAIRDKLDILGAAETGSGKTLAFAIPMIHAVLQWQKRNAAPPPSNTEAPPGETRTEAGAETRSPGKAEAESDALPDDTVIESEALPSDIAAEARAKTGGTVSDQALLFGDDDAGEGPSSLIREKPVPKQNENEEENLDKEQTGNLKQELDDKSATCKAYPKRPLLGLVLTPTRELAVQVKQHIDAVARFTGIKTAILVGGMSTQKQQRMLNRRPEIVVATPGRLWELIKEKHYHLRNLRQLRCLVVDEADRMVEKGHFAELSQLLEMLNDSQYNPKRQTLVFSATLTLVHQAPARILHKKHTKKMDKTAKLDLLMQKIGMRGKPKVIDLTRNEATVETLTETKIHCETDEKDFYLYYFLMQYPGRSLVFANSISCIKRLSGLLKVLDIMPLTLHACMHQKQRLRNLEQFARLEDCVLLATDVAARGLDIPKVQHVIHYQVPRTSEIYVHRSGRTARATNEGLSLMLIGPEDVINFKKIYKTLKKDEDIPLFPVQTKYMDVVKERIRLARQIEKSEYRNFQACLHNSWIEQAAAALEIELEEDMYKGGKADQQEERRRQKQMKVLKKELRHLLSQPLFTESQKTKYPTQSGKPPLLVSAPSKSESALSCLSKQKKKKTKKPKEPQPEQPQPSTSAN
On to B6, for which the binding entry in test [1] was “binds”.
